Results taken from PubChem BioAssay AID256 (DTP/NCI, 2004).
The list does not hold the whole screen: it is rich in T/C values a quarter to a half above the control, in often repeated tests (any T/C) and in doses without a T/C. Further doses and runs are listed elsewhere. T/C is the treated group as % of the vehicle group. Some doses have a count of surviving animals in place of a T/C: the source holds a T/C of zero for them, seemingly a mark for toxic or unscored doses. Some doses without a T/C left all or most animals alive at the check, yet need not have been tolerated: survival well below the control is almost never listed, so the zero probably covers shortened survival too. Counts of survivors are from the toxicity check (mostly the fifth day) where no day follows; animals may have died later. Schedule codes are those of the source, taken here to give the interval after Q, in days (D) or hours (H), and the number of doses after X. Some structures stand for samples that the source files as different forms (salt, stereo form or complex); doses refer to the form tested. For survival time, this PubChem deposit counts one and a half times the control or more as active, and values a quarter to a half above the control carry no call in these data; other NCI protocols may use other cut-offs. Some T/C values carry the count of animals alive at the toxicity check (mostly the fifth day); without a count, all were alive then. Some entries hold several experiments; their values stand side by side, smallest first.

Tested on: CD2F1 mice, L1210 leukemia ip, survival T/C
Test: NCI In Vivo Anticancer Drug Screen. Data for tumor model L1210 Leukemia (intraperitoneal) in CD2F1 (CDF1) mice
Details: higher T/C = longer survival
Procedure, shortened: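 Compound-dosed mice with transplantable tumor versus matched vehicle controls; endpoint ratio T/C reported.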

[1] = T/C endpoint: mean survival time, dose: 100.0 mg/kg/injection, schedule: Q01DX009 (ip), vehicle: Klucel (hydroxypropylcellulose) (HPC)
[2] = T/C endpoint: mean survival time, dose: 200.0 mg/kg/injection, schedule: Q01DX009 (ip), vehicle: Klucel (hydroxypropylcellulose) (HPC)
[3] = T/C endpoint: mean survival time, dose: 200.0 mg/kg/injection, schedule: Q04DX003 (ip), vehicle: saline with Tween-80
[4] = T/C endpoint: mean survival time, dose: 400.0 mg/kg/injection, schedule: Q04DX003 (ip), vehicle: saline with Tween-80
[5] = T/C endpoint: mean survival time, dose: 200.0 mg/kg/injection, schedule: Q04DX002 (ip), vehicle: saline with Tween-80
[6] = T/C endpoint: mean survival time, dose: 400.0 mg/kg/injection, schedule: Q04DX002 (ip), vehicle: saline with Tween-80
[7] = T/C endpoint: mean survival time, dose: 200.0 mg/kg/injection, schedule: Q01DX009 (ip), vehicle: saline with Tween-80

For `CSC(=C[N+](=O)[O-])SC`, the survivor count [1] was 1 of 6, the survivor count [2] was 0 of 6 and the survivor count (T/C endpoint: mean survival time, dose: 400.0 mg/kg/injection, schedule: Q01DX009 (ip), vehicle: Klucel (hydroxypropylcellulose) (HPC)) was 0 of 6.

`NC(=O)c1ncn(C2OC(CO)C(O)C2O)c1O` (centres undefined) was tested, and the T/C (T/C endpoint: mean survival time, dose: 12.5 mg/kg/injection, schedule: Q01DX009 (ip), vehicle: Klucel (hydroxypropylcellulose) (HPC)) was 125 and 125 % of control [5 of 6 alive], the T/C (T/C endpoint: mean survival time, dose: 25.0 mg/kg/injection, schedule: Q01DX009 (ip), vehicle: Klucel (hydroxypropylcellulose) (HPC)) was 130 % of control [5 of 6 alive] and the T/C (T/C endpoint: mean survival time, dose: 50.0 mg/kg/injection, schedule: Q01DX009 (ip), vehicle: Klucel (hydroxypropylcellulose) (HPC)) was 131, 133, 134 % of control. The T/C [1] was 134, 136, 139 % of control and the T/C [2] was 129 % of control.

In the case of `COC(=O)[C@@H]1[C@@H](O)[C@H](OC(=O)c2cc(OC)c(OC)c(OC)c2)C[C@@H]2CN3CCc4c([nH]c5ccccc45)[C@H]3C[C@@H]21`, the survivor count (T/C endpoint: mean survival time, dose: 12.5 mg/kg/injection, schedule: Q01DX009 (ip), vehicle: saline with Tween-80) is reported as 6 of 6, the survivor count (T/C endpoint: mean survival time, dose: 25.0 mg/kg/injection, schedule: Q01DX009 (ip), vehicle: saline with Tween-80) is reported as 2 of 6 and the survivor count (T/C endpoint: mean survival time, dose: 50.0 mg/kg/injection, schedule: Q01DX009 (ip), vehicle: saline with Tween-80) is reported as 0 of 6. For the same compound, the survivor count (T/C endpoint: mean survival time, dose: 100.0 mg/kg/injection, schedule: Q04DX003 (ip), vehicle: saline with Tween-80) was 2 of 6, the survivor count [3] was 4 of 6 and the survivor count [4] was 0 of 6.

With `COc1cc(NC(=O)O/N=C/c2ccccn2)cc(OC)c1OC` the survivor count (T/C endpoint: mean survival time, dose: 200.0 mg/kg/injection, schedule: Q01DX001 (ip), vehicle: saline with Tween-80) was 6 of 6.

`CCCCN(CCCC)CC(O)c1cc(-c2cc(C(O)CN(CCCC)CCCC)c3ccccc3n2)nc2ccccc12` (centres undefined) was tested, and the survivor count [4] was 6 of 6.

With `C=CCOc1c(C)cc(C(C)(C)c2cc(C)c(OCC=C)c(C)c2)cc1C` the survivor count (T/C endpoint: mean survival time, dose: 200.0 mg/kg/injection, schedule: Q01DX001 (ip), vehicle: other) was 6 of 6.

In the case of `C[N+](C)(C)CCCCC[N+](C)(C)C`, the survivor count (T/C endpoint: mean survival time, dose: 100.0 mg/kg/injection, schedule: Q04DX003 (ip), vehicle: saline) is reported as 0 of 6, the survivor count [3] is reported as 0 of 6 and the survivor count (T/C endpoint: mean survival time, dose: 200.0 mg/kg/injection, schedule: Q04DX003 (ip), vehicle: saline) is reported as 0 of 6. For the same compound, the survivor count [4] was 0 of 6 and the survivor count (T/C endpoint: mean survival time, dose: 400.0 mg/kg/injection, schedule: Q04DX003 (ip), vehicle: saline) was 0 of 6.

With `CC1CCC(C(C)C)/C(=N/NC(=O)CC#N)C1` (centres undefined) the survivor count (T/C endpoint: mean survival time, dose: 400.0 mg/kg/injection, schedule: Q01DX001 (ip), vehicle: saline) was 0 of 4.

With `CN(C)c1ccc(C(=O)CCN2CC=C(c3ccccc3)CC2)cc1` the survivor count [5] was 0 of 3 and the survivor count [6] was 0 of 3.

With `COC(=O)NC1C(C)OC(OC2C/C=C(/C)C3C=CC4C(OC5CC(OC6CC(OC7CC(O)C(O)C(C)O7)C(OC7CC(O)C(OC)C(C)O7)C(C)O6)C(O)C(C)O5)C(C)CC(C)C4C3(C)/C(O)=C3\C(=O)OC4(CC(C)C(CO)=CC4/C=C\2C)C3=O)CC1(C)[N+](=O)[O-]` (centres undefined) the survivor count (T/C endpoint: median survival time, dose: 100.0 mg/kg/injection, schedule: Q01DX009 (ip), vehicle: water) was 5 of 5 and the survivor count (T/C endpoint: median survival time, dose: 200.0 mg/kg/injection, schedule: Q01DX009 (ip), vehicle: water) was 0 of 6.

`CC(C)(C)C1(C#N)C(=O)C2CCCCC21` (centres undefined) was tested, and the survivor count (T/C endpoint: mean survival time, dose: 100.0 mg/kg/injection, schedule: Q04DX002 (ip), vehicle: saline with Tween-80) was 1 of 3, the survivor count [5] was 0 of 3 and the survivor count [6] was 0 of 3.

`C=C(Br)COCC` was tested, and the survivor count [3] was 0 of 6 and the survivor count [4] was 0 of 6.

`CC12CCC(CC1CO)C2` (centres undefined) was tested, and the survivor count [4] was 1 of 6.

`CC1(C)C(CC(=O)O)CC1C(=O)O` (centres undefined) was tested, and the survivor count (T/C endpoint: mean survival time, dose: 400.0 mg/kg/injection, schedule: Q01DX009 (ip), vehicle: saline with Tween-80) was 3 of 6.

For `COc1ccc(NC(=O)Nc2ccc(C)c([N+](=O)[O-])c2)c(OC)c1`, the survivor count (T/C endpoint: mean survival time, dose: 100.0 mg/kg/injection, schedule: Q01DX009 (ip), vehicle: saline with Tween-80) was 3 of 3 and the survivor count [7] was 3 of 3.

With `O=C1C=CC(=O)N1c1ccccc1N1C(=O)C=CC1=O` the survivor count (T/C endpoint: mean survival time, dose: 5.0 mg/kg/injection, schedule: Q01DX009 (ip), vehicle: Klucel (hydroxypropylcellulose) (HPC)) was 0 of 3.

In the case of `CSC(=S)N/N=C/c1ccccn1`, the survivor count [7] is reported as 1 of 6 and the survivor count [4] is reported as 0 of 6.
